The whole screen tested about 1,400 compounds, of which fewer than 10 were called active. Not shown: some 8% with an inconclusive outcome. Calls come from the whole dose curve; as a rule, active = well fitted curve in the direction sought with a large enough effect; inconclusive = small, poorly fitted or top-dose-only effect, or another doubt; inactive = no such curve, though single readings can be large or run the other way. Some of the results follow.
Molecular target: Transient receptor potential cation channel subfamily V member 1 (Homo sapiens) (UniProt Q8NER1)
Experiment: qHTS Assay for Compounds that Act as Potentiators of the Vanilloid Receptor 1: Hit Validation; note: % of control where 0% means no effect
Conditions: TRPV1-expressing cells, Fluo-8 calcium influx, capsaicin EC20; series mostly up to 42.1 µM; activity change, positive = potentiation: at the top concentration
In short: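 TRPV1 cells (2000/well, overnight 35.5 °C) loaded with Fluo-8 calcium dye 40–90 min at room temperature. FDSS fluorescence (ex 480/em 520 nm) read 3 min after compound, then 2 min after capsaicin at EC20.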

By UniProt entry, the sequences of proteins in these tests, tags left out.
UniProt Q8NER1, whole entry, looked up: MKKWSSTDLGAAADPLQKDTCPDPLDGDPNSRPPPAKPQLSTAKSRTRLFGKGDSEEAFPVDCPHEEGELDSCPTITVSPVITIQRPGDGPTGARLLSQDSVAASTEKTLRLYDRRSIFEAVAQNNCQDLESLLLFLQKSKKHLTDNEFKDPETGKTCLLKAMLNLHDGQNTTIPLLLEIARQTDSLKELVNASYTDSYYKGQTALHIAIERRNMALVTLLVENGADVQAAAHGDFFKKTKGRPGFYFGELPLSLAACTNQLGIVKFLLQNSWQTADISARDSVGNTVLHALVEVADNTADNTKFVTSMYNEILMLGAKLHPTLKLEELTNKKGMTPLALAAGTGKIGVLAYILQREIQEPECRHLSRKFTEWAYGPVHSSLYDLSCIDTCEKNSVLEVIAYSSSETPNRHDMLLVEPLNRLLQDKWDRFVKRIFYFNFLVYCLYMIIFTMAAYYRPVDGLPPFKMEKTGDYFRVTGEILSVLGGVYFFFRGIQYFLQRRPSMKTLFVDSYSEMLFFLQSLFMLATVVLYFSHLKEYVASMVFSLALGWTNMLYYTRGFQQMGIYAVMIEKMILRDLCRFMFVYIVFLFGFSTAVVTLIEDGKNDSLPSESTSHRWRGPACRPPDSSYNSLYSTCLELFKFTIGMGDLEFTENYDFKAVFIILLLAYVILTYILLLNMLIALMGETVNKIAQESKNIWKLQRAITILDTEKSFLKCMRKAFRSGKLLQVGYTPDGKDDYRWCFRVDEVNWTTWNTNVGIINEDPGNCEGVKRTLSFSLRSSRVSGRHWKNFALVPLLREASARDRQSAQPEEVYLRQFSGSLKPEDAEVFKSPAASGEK

Activity change, positive = potentiation, inactive:
Cc1cccn2c(=O)c3cc(C(=O)NCC4CCCO4)c(=N)n(Cc4ccc(F)cc4)c3nc12 (centres undefined) -39%
COc1cc2cc(Oc3ccc4ccc(=O)oc4c3)c(=O)oc2cc1OC(=O)/C=C/c1ccccc1 -1.77%
Cc1cc(C)c(C#N)c(Cl)n1 -10.6%
COc1cc(/C=N/O)cc(Br)c1OS(=O)(=O)c1ccc(C)cc1 -12.8%
Cc1cccc(NCc2cc(Cl)cc(Cl)c2O)n1 -19.8%
O=C(Nc1ccc(F)cc1)c1cc2c(s1)CCCC2 -36.6%
CCOC(=O)c1ccc(NC(=O)N2CCN(c3cccc(OC)c3)CC2)cc1 -30.5%
O=C(Nc1ccc(N2CCCC2)c(Cl)c1)c1ccc([N+](=O)[O-])o1 -35.3%
CCCCNC(=O)C(Sc1ccccc1)c1ccccc1 (centres undefined) -4.21%
C[C@H](NC(=O)c1nc[nH]c1C(=O)NCCCCCN)C(=O)OC(C)(C)C -12.5%
O=C(CCCOc1ccc(Cl)cc1)N1CCCCC1 -10.7%
O=C(COC(=O)c1ccc[nH]c1=O)Nc1ccc2c(c1)OC(F)(F)O2 2.13%
COCC(C)NC(=O)COc1nncc2ccccc12 (centres undefined) -5.1%
CC(C)COc1ccc(-c2nnn(CC(=O)N3CCCC3)n2)cc1 0.6%
COc1ccc(-n2c(COc3ccc(C)cc3)n[nH]c2=S)cc1 -4.34%
CCOc1ccccc1OCCC(=O)NNC(=O)Cn1nc(C)cc1C 1.1%
CC(C)NC(=O)c1ccc2c(=O)n(CC3CCCO3)c(=S)[nH]c2c1 (centres undefined) -5.52%
CCOc1ccc(/C(O)=C2/C(=O)C(=O)N(CCCN3CCOCC3)C2c2ccc(C)cc2)cc1C (centres undefined) -1.29%
CCOc1cccc(/C(O)=C2/C(=O)C(=O)N(CCOC)C2c2ccco2)c1 (centres undefined) 1.13%
CC1CC(C)CN(C(=O)c2cc(S(=O)(=O)N3CCCCC3)ccc2Cl)C1 (centres undefined) -37.9%
COc1ccc(N2CCN(S(=O)(=O)c3cccc(C(F)(F)F)c3)CC2)cc1 -7.22%
N#CCCn1cc(C(=O)Nc2ccccn2)c(-c2ccccc2)n1 -3.38%
Cc1cc(NS(=O)(=O)c2ccc(NC(=O)COc3ccc(Cl)cc3)cc2)no1 -10.6%
O=C(N/C=C/c1ccccc1)c1ccccc1 -38.8%
CC(C)C(=O)Nc1ccc(C(=O)CN2C(=O)NC3(CCOc4ccccc43)C2=O)cc1 (centres undefined) -39%
COc1ccc2ccc(OC)c(/C=N/n3cnnc3)c2c1 -5.87%
CCN(CC)CCN(C)Cc1nc(C(c2ccccc2)c2ccccc2)no1 -4.55%
Cc1ccc(NC(=O)N(CCC(=O)O)Cc2ccccc2)cc1 -4.4%
COc1ccc(S(=O)(=O)N2CCC(N3CCN(Cc4ccccc4)CC3)CC2)cc1 -9.1%
Cc1cccc(C)c1OCC(=O)Nn1c(=O)[nH]c2ccccc2c1=O 9.45%
CCc1ccc(/C=C2\SC(N3CCOCC3)=NC2=O)cc1 -39%
COC(=O)c1c(NC(=O)c2nc3nc(C)cc(C(F)F)n3n2)sc2c1CCC2 -6.26%
O=C(Cc1cccc2ccccc12)Nc1ccccc1C(=O)O -7.93%
Cc1ccc(NC(=O)C2CC=CCC2C(=O)N2CCCCC2)cc1 (centres undefined) -5.49%
CC(C)(C)c1ccc(OCC(=O)Nc2ccncc2)c(Br)c1 -37.9%
COc1ccc(N(CC(=O)O)S(=O)(=O)c2ccc(OC)c(OC)c2)cc1 1.81%
Cc1ccc(Nc2nc(C)nc3c2oc2ccccc23)cc1 -39.1%
Cc1ccc(C(=O)Nc2ccc(SC(F)F)cc2)s1 -37.5%
COC(=O)CNC(=O)C12CC3(C)CC(C)(CC(C)(C3)C1)C2 -15.2%
O=C(Nc1ccc(F)cc1)/C(Cl)=C/c1ccccc1 -32.3%
Cc1ccc(OCCSc2nc3ccccc3n2CC(=O)O)cc1C -5.44%
CCCCSc1nnc([C@H](C)NC(=O)OC(C)(C)C)o1 -6.85%
O=C(Nc1cccs1)Nc1ccc(Br)cc1F -34%
O=c1sc2ccccc2c(N2CCOCC2)c1[N+](=O)[O-] -7.29%
COc1ccc(C)cc1N(C(=O)c1snc(C(N)=O)c1N)C(C(=O)NC1CCCC1)c1ccc(F)cc1 (centres undefined) -36.7%
O=C(Nn1c(Cc2ccccc2)nc2ccccc2c1=O)c1c(O)c2cccc3c2n(c1=O)CCC3 -2.78%
CCCOc1ccc(S(=O)(=O)NNC(=O)c2cc3ccccc3o2)cc1 1.93%
Cc1ccc(S(=O)(=O)Cc2ccc(C(=O)NCCc3ccccc3)o2)cc1 -35.8%
Cc1ccc(S(=O)(=O)N(C)c2ccc(C)c([N+](=O)[O-])c2)cc1 -5.09%
C#CCOCCOCCOCCNc1nc(N2CCN(C(=O)[C@H]([C@@H](C)CC)n3cc(CCCCN)nn3)CC2)nc(N2CCN(C(=O)[C@H](CCCCN)n3cc(CC(C)O)nn3)CC2)n1 (some centres undefined) -6.07%
Nc1ccccc1N=Cc1ccc(-c2cccc(Cl)c2)o1 -37.7%
CCN(CC)CCN(C(=O)c1ccc(C(C)=O)cc1)c1nc2ccc(Cl)cc2s1 -14.7%
CCS(=O)(=O)N1CCC(N2CCN(c3ccccc3)CC2)CC1 5.91%
COc1cccc(N2CCN(C(=O)CCS(=O)(=O)c3ccc4c(c3)oc(=O)n4C)CC2)c1 -8.02%
CCN(CC(=O)Nc1ccccc1OC)CC(=O)Nc1sccc1C#N 5.9%
Cc1ccccc1NC(=O)CSc1nc(-c2ccccc2)cc(=O)[nH]1 -10.3%
Cc1ccc(NC(=O)CN(C)C(C)C(=O)Nc2ccc(S(=O)(=O)N3CCCC3)cc2)cc1 (centres undefined) -4.26%
O=C(NCCc1ccccc1)C1c2ccccc2C(=O)N1Cc1cccs1 (centres undefined) 2.33%
Cc1ccccc1-c1nc2cc(Cl)ccc2o1 4.07%
COc1ccc(Cn2nc(-c3ccccc3)c(N3CCCCC3)cc2=O)cc1 -39.1%
O=C(Nc1ccncc1)c1ccc(Br)cc1 -22.6%
COc1ccc(NC(=O)c2ccccc2NC(=O)C2CC=CCC2C(=O)O)cc1 (centres undefined) -4.77%
COc1cc(NC2CCCCC2O)c2nc(-c3ccc(Cl)cc3)ccc2c1 (centres undefined) 2.71%
O=C1c2cccnc2C(Nc2ccc(Br)cc2)N1Cc1cccs1 (centres undefined) -38.5%
CCc1sc(C(=O)NC2CCN(C)CC2)cc1Br -1.61%
CC(C)(C)c1ccc(C(=O)Nc2ccc(C=C(C#N)C#N)cc2)cc1 -39.6%
C=CCC1c2cccc(C(=O)O)c2C(=O)N1c1cccc(OC)c1 (centres undefined) -1.3%
CCN(CC)c1ccc(C(=O)NNC(=O)CCl)cc1 2.08%
CC1CCN(CCOc2ccc(C(=O)c3ccccc3)cc2)CC1 4.67%
COc1ccc(NC(=O)c2ccc3ncsc3c2)cc1 -38.9%
COc1ccc2[nH]c3nc(SCC(=O)Nc4cccc(NC(C)=O)c4)nnc3c2c1 3.38%
O=C(COC(=O)C12CC3CC(CC(C3)C1)C2)Nc1ccc2[nH]c(=O)[nH]c2c1 -4.81%
COc1ccc(CNC(=S)NCc2ccc(Cl)cc2)cc1OC -37.6%
COC(=O)[C@@]12CCCN1[C@H](c1ccc(-c3ccc(OC)cc3)cc1)[C@@H]1C(=O)N(C)C(=O)[C@@H]12 -7.31%
C/C(=N\NC(=O)c1ccncc1)c1cccc(NC(=O)c2ccc(C(C)(C)C)cc2)c1 -20.7%
CC(C)(C)c1ccc(/C=C/C(=O)Nc2ccncc2)cc1 -38.6%
Cc1ccc(S(=O)(=O)N2CCCCC2)cc1C(=O)NC1CCCCC1 -4.45%
Cn1c(=O)[nH]c(=O)c2c1nc(Br)n2CCCSc1nc2ccccc2o1 -6.26%
CCc1ccc(Nc2n[n+](-c3ccccc3)c(-c3cccc(Cl)c3Cl)s2)cc1 -3.66%
Cc1c(C(=O)Nc2ccncc2)sc2nc(-c3ccccc3)cn12 -36.5%
Cn1cnnc1SCC(=O)N1N=C(c2ccc(Cl)cc2)CC1c1ccco1 (centres undefined) -12.8%
Cc1cc(C)cc(-n2nnn(C3C/C(=N/NC(N)=S)C4OCC3O4)c2=S)c1 (centres undefined) -2.49%
CCOC(=O)c1ccc(NC(=O)c2cc3c(s2)CCC3)cc1 -38.3%
COCCNC(=O)CCCCCN1C(=O)CCC1=O 3.96%
N/C(=N\OC(=O)c1cccs1)c1ccc(Cl)cc1 -5.53%
COc1cc(CN(C)CC(=O)c2[nH]c(C)c(C(C)=O)c2C)ccc1OC(F)F 11%
Nn1c(Cc2ccccc2F)nnc1SCn1nnc2ccccc2c1=O -3.91%
O=C(CSc1ccc2nnc(-c3ccccc3)n2n1)NCC1CCCO1 (centres undefined) -10.8%
COc1ccc(CNCc2c(O)c(Cl)cc3c(C)c(C)c(=O)oc23)c(OC)c1 -8.72%
O=C(O)CCC(=O)N1N=C(c2ccco2)CC1c1ccco1 (centres undefined) -5.94%
Nc1ccc(Oc2ccc(Cl)cc2)cc1 -6.86%
Cc1ccc(NC(=O)c2ccc(S(=O)(=O)N3CCCC3)cc2)nc1 -32.8%
CCC(C)c1ccc(NC(=S)NCc2ccccc2OC)cc1 (centres undefined) -38.1%
COc1cccc(NC(=O)n2nc(N)cc2-c2ccc(Cl)cc2)c1 -9.25%
CC(=O)Nc1c(O)nc(SCC(=O)N2CCN(c3ccc(F)cc3)CC2)[nH]c1=O -1.02%
O=C(Nc1ccccc1)C1C(c2ccccc2)C1(Cl)Cl (centres undefined) -34.5%
Cc1cc2cc(CNC(=S)NC3CCCCC3)ccc2[nH]1 8.09%
Cc1cc(C)c(OCC(=O)Nc2nnc(-c3ccco3)o2)c(C)c1 -7.22%
Cc1ccc(C)c(N=Nc2ccc(O)c3ncccc23)c1 -9.28%
Cc1c(OCC(=O)N2CCC(C(N)=O)CC2)ccc2c1oc(=O)c1ccccc12 -36.7%
COC(=O)c1nnn(CC(=O)Nc2ccc(C)c(F)c2)c1C(=O)OC 8.85%
CCCCOc1ccc(C(=O)Nc2cccc(-n3cnnn3)c2)cc1OC -34.7%
CCc1c(C)sc(NC(=O)c2cc(C)no2)c1C#N -3.05%
CCN(CCCNC(=O)c1cn(CC)c2ccc(S(=O)(=O)N(C)C)cc2c1=O)c1cccc(C)c1 -37.6%
CCOc1cc(C(=O)OCC(=O)Nc2ccc(SC(F)F)cc2)cc(OCC)c1OCC -24.8%
O=C(Nc1ccc(-n2cccc2)cc1)C1CC1 -2.93%
Cc1cc2oc(C(=O)Nc3cccnc3)c(C)c2cc1C -38%
COC(=O)c1cccc(NC(=O)c2ccc3c(c2)C(=O)N(C(C)(C)C)C3=O)c1 -28%
COC(=O)c1ccc(-c2nc(CN3CCC(C(=O)N4CCOCC4)CC3)c(C)o2)cc1 1.75%

Entries listed so far that have a COOH group:
Activity change, positive = potentiation, inactive:
Cc1ccc(NC(=O)N(CCC(=O)O)Cc2ccccc2)cc1 -4.4%
O=C(Cc1cccc2ccccc12)Nc1ccccc1C(=O)O -7.93%
COc1ccc(N(CC(=O)O)S(=O)(=O)c2ccc(OC)c(OC)c2)cc1 1.81%
Cc1ccc(OCCSc2nc3ccccc3n2CC(=O)O)cc1C -5.44%
COc1ccc(NC(=O)c2ccccc2NC(=O)C2CC=CCC2C(=O)O)cc1 (centres undefined) -4.77%
C=CCC1c2cccc(C(=O)O)c2C(=O)N1c1cccc(OC)c1 (centres undefined) -1.3%
O=C(O)CCC(=O)N1N=C(c2ccco2)CC1c1ccco1 (centres undefined) -5.94%

Two consecutive entries from above, quoted:
Activity change, positive = potentiation, inactive:
CC(C)(C)c1ccc(OCC(=O)Nc2ccncc2)c(Br)c1 -37.9%
COc1ccc(N(CC(=O)O)S(=O)(=O)c2ccc(OC)c(OC)c2)cc1 1.81%

Reference: PubChem BioAssay AID623959 (National Center for Advancing Translational Sciences (NCATS), 2012)
